According to article PMC8564441:
Results are given in words; binding and its absence hold for the method and conditions named. In cells and extracts the contact can be indirect. Some binding calls cover weakened binding; strength is not graded here. Sequences can lack the tags named with a protein.

The chains behind the UniProt entries cited, without tags or fusion partners. Residues count along the entry.
UniProt P20029, residues 20-655: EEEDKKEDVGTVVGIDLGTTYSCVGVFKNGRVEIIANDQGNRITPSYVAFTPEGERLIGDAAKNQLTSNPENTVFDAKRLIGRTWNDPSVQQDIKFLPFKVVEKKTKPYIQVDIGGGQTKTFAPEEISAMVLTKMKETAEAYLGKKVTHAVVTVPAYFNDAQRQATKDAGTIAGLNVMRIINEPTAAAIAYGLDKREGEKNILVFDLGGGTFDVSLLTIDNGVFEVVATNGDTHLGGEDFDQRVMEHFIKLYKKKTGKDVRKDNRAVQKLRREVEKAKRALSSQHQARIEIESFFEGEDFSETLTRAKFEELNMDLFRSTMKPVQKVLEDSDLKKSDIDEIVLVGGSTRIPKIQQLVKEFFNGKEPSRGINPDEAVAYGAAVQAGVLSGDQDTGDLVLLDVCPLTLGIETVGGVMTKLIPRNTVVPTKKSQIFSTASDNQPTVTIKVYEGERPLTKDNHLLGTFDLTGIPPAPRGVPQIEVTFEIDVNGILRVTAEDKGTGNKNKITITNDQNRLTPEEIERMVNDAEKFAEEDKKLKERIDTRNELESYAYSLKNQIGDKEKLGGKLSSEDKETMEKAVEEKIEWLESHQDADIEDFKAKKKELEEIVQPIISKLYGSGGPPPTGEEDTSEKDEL

Biological target: GRP78-Flag (mouse GRP78 with a Flag-tag) (mouse) (UniProt P20029)
Assay: co-IP; 293FT cells stably expressing GRP78-Flag, transiently transfected with untagged PZP for 48 h; lysate incubated with anti-DYKDDDDK (Flag) affinity gel overnight; western blot

B1: PZP, untagged, overexpressed in 293FT cells (protein, UniProt Q61838 25-1495)
chain: ATAKPQYVVLVPSEVYSGVPEKACVSLNHVNETVMLSLTLEYAMQQTKLLTDQAVDKDSFYCSPFTISGSPLPYTFITVEIKGPTQRFIKKKSIQIIKAESPVFVQTDKPIYKPGQIVKFRVVSVDISFRPLNETFPVVYIETPKRNRIFQWQNIHLAGGLHQLSFPLSVEPALGIYKVVVQKDSGKKIEHSFEVKEYVLPKFEVIIKMQKTMAFLEEELPITACGVYTYGKPVPGLVTLRVCRKYSRYRSTCHNQNSMSICEEFSQQADDKGCFRQVVKTKVFQLRQKGHDMKIEVEAKIKEEGTGIELTGIGSCEIANALSKLKFTKVNTNYRPGLPFSGQVLLVDEKGKPIPNKNITSVVSPLGYLSIFTTDEHGLANISIDTSNFTAPFLRVVVTYKQNHVCYDNWWLDEFHTQADHSATLVFSPSQSYIQLELVFGTLACGQTQEIRIHYLLNEDIMKNEKDLTFYYLIKARGSIFNLGSHVLSLEQGNMKGVFSLPIQVEPGMAPEAQLLIYAILPNEELVADAQNFEIEKCFANKVNLSFPSAQSLPASDTHLKVKAAPLSLCALTAVDQSVLLLKPEAKLSPQSIYNLLPGKTVQGAFFGVPVYKDHENCISGEDITHNGIVYTPKHSLGDNDAHSIFQSVGINIFTNSKIHKPRFCQEFQHYPAMGGVAPQALAVAASGPGSSFRAMGVPMMGLDYSDEINQVVEVRETVRKYFPETWIWDLVPLDVSGDGELAVKVPDTITEWKASAFCLSGTTGLGLSSTISLQAFQPFFLELTLPYSVVRGEAFTLKATVLNYMSHCIQIRVDLEISPDFLAVPVGGHENSHCICGNERKTVSWAVTPKSLGEVNFTATAEALQSPELCGNKLTEVPALVHKDTVVKSVIVEPEGIEKEQTYNTLLCPQDTELQDNWSLELPPNVVEGSARATHSVLGDILGSAMQNLQNLLQMPYGCGEQNMVLFVPNIYVLNYLNETQQLTEAIKSKAINYLISGYQRQLNYQHSDGSYSTFGNHGGGNTPGNTWLTAFVLKAFAQAQSHIFIEKTHITNAFNWLSMKQKENGCFQQSGYLLNNAMKGGVDDEVTLSAYITIALLEMPLPVTHSAVRNALFCLETAWASISQSQESHVYTKALLAYAFALAGNKAKRSELLESLNKDAVKEEDSLHWQRPGDVQKVKALSFYQPRAPSAEVEMTAYVLLAYLTSESSRPTRDLSSSDLSTASKIVKWISKQQNSHGGFSSTQDTVVALQALSKYGAATFTRSQKEVLVTIESSGTFSKTFHVNSGNRLLLQEVRLPDLPGNYVTKGSGSGCVYLQTSLKYNILPVADGKAPFALQVNTLPLNFDKAGDHRTFQIRINVSYTGERPSSNMVIVDVKMVSGFIPMKPSVKKLQDQPNIQRTEVNTNHVLIYIEKLTNQTLGFSFAVEQDIPVKNLKPAPIKVYDYYETDEFTVEEYSAPFSDGSEQGNA
Question: For B1, which binding is on record?
Answer: binds
